# Experimental data published in PubChem BioAssay AID1487 (National Center for Advancing Translational Sciences (NCATS), 2009).
# Several values for one entry are separate records, joined by “and”; a condition that tells them apart may be missing. Equal values may be shown once. The list shows a part of the results. The main result of the screen is listed elsewhere. These columns were measured beside it and carry no call. The list favours compounds with an active or inconclusive main result. Potencies come from curve fits of mixed quality, noted in brackets.
# Test: qHTS Assay for Modulators of Lamin A Splicing
# Details: HeLa LMNA splicing GFP/RFP minigene ratio, 48 h
# In short: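 S3 HeLa cells stably expressing lamin A-EGFP splicing minigene plus DsRed2, 600 cells/well, 48 h compound exposure at 37C. Laser-scanning cytometry; analysed as GFP (500-530 nm)/RFP (575-640 nm) total intensity ratio; 0.5% DMSO vehicle.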
# [1] = measured here: RFP viability control channel
# [2] = measured here: GFP splicing reporter channel
SMILES,AC50 [1],AC50 [2]
O=S(=O)(c1ccccc1Cl)N1CCCC1c1nc(-c2ccc(Cl)cc2)no1 (configuration not stated),"10 µM [rising, partial curve, poor fit]",
CC(C)C[C@H](NC(=O)OC(C)(C)C)c1nnc(SCC(=O)Nc2ccc(Br)cc2)o1,"8.91 µM [rising, partial curve]","14.1 µM [rising, single point]"
COc1cccc(N/C=C/C(=O)c2ccc(Cl)cc2)c1,,"14.1 µM [rising, partial curve]"
CSc1ccc(CN(C)CC(=O)Nc2ccccc2Br)cc1,"35.5 µM [rising, single point]","31.6 µM [rising, single point]"
Cc1cccc2cc(CN(Cc3cccnc3)C(=S)NCCCN(C)C)c(=O)[nH]c12,"5.62 µM [falling, single point]",
Cn1c(SCC(=O)Nc2ccccc2)nc2c([nH]c3ccccc32)c1=O,"12.6 µM [falling, partial curve]",
O=S(=O)(N/N=C/c1ccc(Cl)cc1)c1ccc(Cc2ncc(C(F)(F)F)cc2Cl)s1,"17.8 µM [rising, single point]",
CCc1c(C)sc(NC(=O)Cn2nc(C(F)(F)F)c3c2CCCC3)c1C#N,"11.2 µM [rising, partial curve]",
COc1cccc(NC(=O)c2ccccc2-c2nc(-c3ccc(Cl)cc3)no2)c1,"31.6 µM [rising, single point]","15.8 µM [rising, single point]"
CCCn1c(-c2ccc(OC)cc2)nc2ccccc21,"22.4 µM [rising, partial curve]","17.8 µM [rising, single point]"
O=C(N/N=C\C=C\c1ccco1)c1cc(-c2ccc3ccccc3c2)n[nH]1,"3.55 µM [falling, partial curve, poor fit]","5.01 µM [falling, partial curve, poor fit]"
Cc1cc(Cl)c(S(=O)(=O)N2CCCCCC2)cc1OCC(N)=O,"15.8 µM [rising, single point]",
CCOC(=O)c1cccc(Nc2ncnc3ccccc23)c1,"12.6 µM [rising, partial curve]",
COc1ccc(CC(NC(C)=O)C(=O)NC2CCN(c3c(Cc4ccccc4)c(C)nc4ncnn34)CC2)cc1OC (configuration not stated),"0.00891 µM [falling, full curve]",
O=C(/C=C/c1ccc(O)c(O)c1)OCCc1ccccc1,"2.82 µM [falling, full curve]","2.82 µM [rising, partial curve] and 2.82 µM [falling, full curve]"
COc1cccc(NC(=O)Cn2nc(-c3ccncc3)ccc2=O)c1,,"0.0224 µM [falling, full curve, poor fit]"
C=CCn1c(SCC(=O)OCC)nc(C(F)(F)F)cc1=O,"1.58 µM [rising, partial curve]","1.78 µM [rising, partial curve]"
O=C(CCc1ccc(Oc2cc([N+](=O)[O-])cc([N+](=O)[O-])c2)cc1)NC1CCCC1,"35.5 µM [rising, single point]","17.8 µM [rising, single point]"
COc1ccc(Cn2c(CNS(=O)(=O)c3ccc(Cl)s3)nc3cccnc32)cc1,,"0.447 µM [rising, partial curve]"

# Arranged by length of the SMILES (largest number first): part of the list above
SMILES,AC50 [1],AC50 [2]
COc1ccc(CC(NC(C)=O)C(=O)NC2CCN(c3c(Cc4ccccc4)c(C)nc4ncnn34)CC2)cc1OC (configuration not stated),"0.00891 µM [falling, full curve]",
O=C(CCc1ccc(Oc2cc([N+](=O)[O-])cc([N+](=O)[O-])c2)cc1)NC1CCCC1,"35.5 µM [rising, single point]","17.8 µM [rising, single point]"
O=S(=O)(N/N=C/c1ccc(Cl)cc1)c1ccc(Cc2ncc(C(F)(F)F)cc2Cl)s1,"17.8 µM [rising, single point]",
Cc1cccc2cc(CN(Cc3cccnc3)C(=S)NCCCN(C)C)c(=O)[nH]c12,"5.62 µM [falling, single point]",
COc1ccc(Cn2c(CNS(=O)(=O)c3ccc(Cl)s3)nc3cccnc32)cc1,,"0.447 µM [rising, partial curve]"
COc1cccc(NC(=O)c2ccccc2-c2nc(-c3ccc(Cl)cc3)no2)c1,"31.6 µM [rising, single point]","15.8 µM [rising, single point]"
O=S(=O)(c1ccccc1Cl)N1CCCC1c1nc(-c2ccc(Cl)cc2)no1 (configuration not stated),"10 µM [rising, partial curve, poor fit]",
CCc1c(C)sc(NC(=O)Cn2nc(C(F)(F)F)c3c2CCCC3)c1C#N,"11.2 µM [rising, partial curve]",
Cn1c(SCC(=O)Nc2ccccc2)nc2c([nH]c3ccccc32)c1=O,"12.6 µM [falling, partial curve]",
Cc1cc(Cl)c(S(=O)(=O)N2CCCCCC2)cc1OCC(N)=O,"15.8 µM [rising, single point]",
COc1cccc(NC(=O)Cn2nc(-c3ccncc3)ccc2=O)c1,,"0.0224 µM [falling, full curve, poor fit]"
C=CCn1c(SCC(=O)OCC)nc(C(F)(F)F)cc1=O,"1.58 µM [rising, partial curve]","1.78 µM [rising, partial curve]"
COc1cccc(N/C=C/C(=O)c2ccc(Cl)cc2)c1,,"14.1 µM [rising, partial curve]"
CSc1ccc(CN(C)CC(=O)Nc2ccccc2Br)cc1,"35.5 µM [rising, single point]","31.6 µM [rising, single point]"
CCOC(=O)c1cccc(Nc2ncnc3ccccc23)c1,"12.6 µM [rising, partial curve]",
CCCn1c(-c2ccc(OC)cc2)nc2ccccc21,"22.4 µM [rising, partial curve]","17.8 µM [rising, single point]"

# Next entries.

SMILES,AC50 [1],AC50 [2]
CCCOc1cc(C)c(S(=O)(=O)NCCOC)cc1C,"22.4 µM [rising, single point]",
O=C(/C=C/c1ccc(Cl)cc1Cl)n1cccn1,"20 µM [falling, partial curve]","35.5 µM [falling, single point]"
CC(C)=CC(=O)N1CCC(N2CCC(C(=O)N3CCOCC3)CC2)CC1,"35.5 µM [falling, single point]",
COc1ccc(NS(=O)(=O)c2ccc(O)c(NC(=O)c3ccc(S(=O)(=O)N4CCCCCC4)cc3)c2)cc1,"2.82 µM [rising, full curve]",
CCCCN(CCCC)C(=S)N/N=C/c1c(C)[nH]n(-c2ccccc2)c1=O,"1.12 µM [falling, full curve, poor fit]","35.5 µM [falling, single point]"
Cc1cccc(OCCCCc2c(C)n[nH]c2C)c1C,"35.5 µM [rising, single point]",
CN(C)c1ccc(S(=O)(=O)N(C)C)cc1[N+](=O)[O-],,"0.224 µM [falling, full curve, poor fit]"
CC(=O)c1cc(F)c(N2CCN(C(=O)COc3ccc(F)cc3)CC2)cc1C,"28.2 µM [rising, single point]",
CC1=NNC(=O)C1CCC(=O)N/N=C\c1ccc(Cl)c(Cl)c1 (configuration not stated),"0.631 µM [falling, single point]",
NCC(O)CC(=O)O (configuration not stated),"35.5 µM [falling, single point]","1.26 µM [falling, single point]"
O=C(CSc1nnc2[nH]c(=O)cc(-c3ccccc3)n12)Nc1ccccc1C(F)(F)F,"22.4 µM [falling, partial curve, poor fit]",
COc1ccc(CCNC(=O)c2cc3c(=O)n4ccccc4nc3n2C)cc1,,"12.6 µM [falling, partial curve]"
CC(=O)OCC(CCn1cnc2cnc(N)nc21)COC(C)=O,,"35.5 µM [falling, single point]"
NNc1nncc2ccccc12,"3.16 µM [falling, single point]","0.000316 µM [falling, full curve, poor fit]"
O=C(c1cccs1)N(Cc1ccco1)c1nc(-c2ccc(F)cc2)cs1,"35.5 µM [rising, single point]",
CCOC(=O)c1csc(NC(=O)c2ccc(OC)c(OC)c2)n1,"3.98 µM [falling, full curve, poor fit]",
COC(=O)c1ccccc1Sc1c(/C=N/OC(=O)c2ccccc2)c(C(F)(F)F)nn1C,"10 µM [rising, partial curve, poor fit]",
CCCc1ccc(C(=O)NNc2ccc(F)cc2)cc1,,"0.282 µM [rising, partial curve, poor fit]"
CCOc1ccc(C(C)NC(=O)C2CCCC2)cc1 (configuration not stated),"6.31 µM [rising, single point]",

SMILES,AC50 [1],AC50 [2]
O=C1c2cccc3c(Cl)ccc(c23)C(=O)N1O,,"35.5 µM [falling, single point]"
CCCCc1c(O)c2ccccc2n(CCCC)c1=O,"20 µM [rising, single point]","11.2 µM [rising, single point]"
CCN(CC)S(=O)(=O)c1ccc(Cl)c(NC(=O)COc2ccc3c(C)cc(=O)oc3c2)c1,"2 µM [rising, partial curve, poor fit]",
COc1ccc(C2=Nn3c(nnc3-c3ccncc3)SC2)cc1OC,"35.5 µM [rising, single point]",
O=C(NCc1ccc(Cl)cc1)c1ncn[nH]1,"4.47 µM [falling, single point]",
O=C(NCCCc1ccccc1)c1cccc([N+](=O)[O-])c1,,"2.24 µM [rising, partial curve, poor fit]"
Cc1nc(Nc2ccc3c(c2)OCCO3)c2oc3ccccc3c2n1,"35.5 µM [rising, single point]","35.5 µM [rising, single point]"
Cc1ccc(OCCSc2cc(C)nc(N)n2)cc1,"20 µM [rising, single point]","17.8 µM [rising, partial curve]"
O=C(NCc1ccccc1)c1ccc(CSc2nc3cccnc3n2Cc2ccccc2)cc1,"0.02 µM [falling, full curve, poor fit]","0.02 µM [falling, full curve, poor fit]"
O=C1C2C3c4ccccc4C(c4ccccc43)C2c2nc3ccccc3n21 (configuration not stated),"20 µM [rising, single point]",
CSc1ccccc1NC(=O)CN1CCCCC1,,"0.0398 µM [falling, full curve, poor fit]"
COc1ccc(N2CCN(C(=O)c3cccc(Cn4cc(Cl)cn4)c3)CC2)cc1,"12.6 µM [rising, partial curve]",
Cc1cc(C(=O)COC(=O)Cc2n[nH]c(=O)c3ccccc23)c(C)n1-c1cccc(C(F)(F)F)c1,"15.8 µM [rising, partial curve, poor fit]","14.1 µM [rising, single point]"
Cc1ccc2nc(SCC(=O)Nc3ccc(F)c([N+](=O)[O-])c3)[nH]c2c1,"28.2 µM [rising, single point]",
CCN(CCn1cccn1)C(=O)c1cc(COc2c(F)cccc2F)on1,"0.00562 µM [falling, full curve, poor fit]",
Cc1ccc(C)n1-n1c(C)nc2sc3c(c2c1=O)CCCCC3,"14.1 µM [rising, single point]","14.1 µM [rising, single point]"
O=C1S/C(=C\c2ccc(O)c([N+](=O)[O-])c2)C(=O)N1Cc1cccc([N+](=O)[O-])c1,"7.08 µM [falling, partial curve, poor fit]","31.6 µM [rising, single point]"
CC(C)(C)C1CCC(=NNC(=O)c2cc(-c3ccccc3)n[nH]2)CC1 (configuration not stated),"6.31 µM [falling, partial curve]",
COc1ccc(CNc2ccnc(-c3ccc(N(C)C)cc3)n2)c(OC)c1,"8.91 µM [falling, partial curve]","5.62 µM [falling, partial curve]"
